No constants are given. Whether binding was seen depends on the method and setting. Binding seen in cells or lysates may run through a third protein. Here binding means that the protein was enriched with, or labelled near, the bait; the list need not be complete. Where a sequence is shown, tags or fusion partners need not be part of it.
What follows are substances tested against T1, Flag-CREG1 (cellular repressor of E1A-stimulated genes 1) (chicken) (UniProt Q5ZJ73) (assay: affinity purification with mass spectrometry; lysate (1000 μg) of Flag-CREG1 overexpressing DF-1 cells under viral infection; Flag antibody or IgG control with protein A/G beads overnight at 4 °C; 10% SDS-PAGE, silver staining, LC-MS/MS).
T1 sequence: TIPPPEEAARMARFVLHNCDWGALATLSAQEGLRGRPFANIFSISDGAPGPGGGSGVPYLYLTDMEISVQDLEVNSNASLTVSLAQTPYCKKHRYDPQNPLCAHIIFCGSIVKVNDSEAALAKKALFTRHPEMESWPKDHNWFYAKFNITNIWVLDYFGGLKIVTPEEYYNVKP

Chains of the proteins cited; added tags and fusions are not shown.
UniProt Q5ZMN3: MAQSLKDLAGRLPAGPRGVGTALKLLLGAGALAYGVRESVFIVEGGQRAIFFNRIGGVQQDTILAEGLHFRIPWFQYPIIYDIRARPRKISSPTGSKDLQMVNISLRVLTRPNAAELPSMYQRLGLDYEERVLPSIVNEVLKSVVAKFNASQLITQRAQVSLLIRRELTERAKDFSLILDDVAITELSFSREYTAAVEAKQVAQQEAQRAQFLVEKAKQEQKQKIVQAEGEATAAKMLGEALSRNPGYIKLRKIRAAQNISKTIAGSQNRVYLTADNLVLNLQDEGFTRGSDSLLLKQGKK

| binding | Substance |
| --- | --- |
| binds | PHB2 (from UniProt Q5ZMN3 1-301) |
| binds | SLC25A3 (chicken (endogenous in DF-1)) |
| binds | SLC25A4 (chicken (endogenous in DF-1)) |

Reference: publication PMC12867876
